One molecule from article PMC8473790 can be followed below.

This assay concerns the target Cdc42 (Pyricularia oryzae) (UniProt G4NC11). The assay can be described thus: two-hybrid.

No constants are given. Whether binding was seen depends on the method and setting. A result given as binding can be weak or reduced; the word gives no strength.

B1: Mst50 (protein, UniProt G4N525 1-489)
chain: MSFNTGTAYAESDADDEYERDIHDSSPIDATDAEASPTESDPPSNEHTPTTYGYRSSADRLPETIISEWTADECADFIATIGLEQYSTRFVENEIVGEALVALLHDDLKSMGIHSVGHRLTILRSVYDVKKAQDVPVESDHYVPLTAENEGQYATAKDIKNLVEQLRLRDERMHLFEQDFRRLAEDFRRLREDMLPALRLAKDAQQPLPHLNNGSAYAGYDTTISPPAPTPSTSGQSGGGLKRQWSTKKIMLGTTPKATSPTHLQTAHDRSLAEQTLDPSSAAERAVMSSSHLAINGLVPSATSPSYPSINIPSPTSPPNTLGGATLASRSYRSDQPTPSSRSTFAESDYAHPGGRDKQPVAPRRMQTPAPDTPSGSNASVEIFKSFRVSMDDPCYKVLPAALKKYQINAPWDQYALYIVYGDQERCLGLEEKPLILFKQLDKEGKKPMFMLRKTNNAQVDIGNEAPGSAGLGSARGAATGYDPPGGII
B1: the binding result was “binds”.
